# Library screening results

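Assay on Mycobacterium tuberculosis, filed only as a heat shock assay from Cornell; the read-out is not stated. The concentration is filed as 10 mM, unlikely as a test dose, so the dose is not known. Direction is inferred from retests: higher values go with stronger inhibition. About 69,000 compounds were tested under these conditions; 1.4% (about 930) showed 50% or more at least once.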

Each number is a percent effect as filed. The record does not define 0% and 100%; most values in the screen are far below 50% and negative numbers occur (in some assays of this library far below -100). This is an unselected part of the compounds tested.

| SMILES | percent effect |
|---|---|
| `Cc1nn(C)c(C)c1CN1CCCC(c2ccc(C(=O)O)cc2)C1` (centres unmarked) | 17.42% |
| `CSc1ccccc1NC(=O)C1CSc2ncc(C)c(=O)n2C1` (centres unmarked) | -18.37% |
| `CC(CNC(=O)OC(C)(C)C)N(C)C(=O)COc1ccccc1C#N` (centres unmarked) | 19.01% |
| `CCc1nnc(Nc2cccc(C3CCN(CC4CC4)CC3)n2)s1` | -11.91% |
| `Cc1cc(C(=O)NCc2ccc(N3CCCC(C(N)=O)C3)cc2)on1` (centres unmarked) | 3.101% |
| `CC(Cn1cccn1)NC(=O)C1=Cc2ccccc2OC1` (centres unmarked) | 3.674% |
| `CC(c1ccc(F)c(F)c1)N1CCN(Cc2nccn2C)CC1` (centres unmarked) | -5.222% |
| `CN(CCc1ccccn1)[C@@H]1CCN(c2cccc(C#N)n2)C[C@H]1O` | -18.61% |
| `CN(Cc1c(F)cccc1Cl)C(=O)c1cnn(CCN2CCCCC2)c1` | -22.98% |
| `Cc1oc(NC(=O)C(C)N2CCN(C(C)(C)CO)CC2)c(C#N)c1C` (centres unmarked) | 9.298% |
| `CCc1nnsc1C(=O)NCCc1nnc2n1CCC2` | -0.9157% |
| `CCN(Cc1cnn(CC)c1)C(=O)Cn1c(=O)c(C)nc2ccccc21` | 11.84% |
| `O=C(CC1CC1)N1CCC2(CC(=O)N(c3cccc(F)c3)C2)C1` (centres unmarked) | -24.94% |
| `Cc1nccn1CCC1CCN(c2ncccn2)CC1` | -10.38% |
| `O=C(CS(=O)(=O)Cc1cc(Cl)c2c(c1)OCO2)N1CCCCCC1` | -17.82% |
| `O=C(C1CCCCC1)N1CCCC([C@@H]2C[C@H](C(F)F)n3ncnc3N2)C1` (some centres unmarked) | -19.37% |
| `Cc1cc(C)n(C2CCCN(C(=O)c3csc(C4CC4)n3)C2)n1` (centres unmarked) | -12.38% |
| `COCCNC(=O)Cn1c(-c2ccc(F)cc2)nc(C)c(CCO)c1=O` | 29.85% |
| `[H][C@@]12CCN(C[C@@H]1CN(C)c1ccccc1)[C@@H](CNC(=O)c1ccco1)C2` | -30.23% |
| `FC(F)(F)CCc1ncnn1-c1ccc2c(c1)OCO2` | 11.48% |
| `CCc1nc(C2CCCN2C(=O)c2ccc3c(c2)nc(C)n3C)no1` (centres unmarked) | 12.94% |
| `O=C(C1CC1)N1CCC2(CCN2Cc2ccc(F)cc2)C1.O=C(O)C(F)(F)F` (centres unmarked) | -4.275% |
| `COc1ccc(CN2CCCCCC2c2cccs2)c(O)c1` (centres unmarked) | -3.34% |
| `Cc1noc(C2CCN(C(=O)c3cc(Br)ccc3F)CC2)n1` | 3.709% |
| `CC(=O)N1CC2(CCN(c3nccc4ccccc34)CC2)CC1C(=O)O` (centres unmarked) | 21.85% |
| `CC(=O)N1CCC2(CC1)CN(C)CC[C@H]2C(F)(F)F.Cl` | 6.846% |
| `COc1cccc2c(=O)n(Cc3nc(C)cc(O)n3)cnc12` | -25.35% |
| `Cc1c(C2SCC(=O)Nc3c2c(O)nn3C2CCCCC2)cnn1C` (centres unmarked) | -43.9% |
| `[H][C@@]12CCCO[C@]1([H])[C@@H](OC)CN2S(=O)(=O)c1cn(C)cn1` | -4.697% |
| `O=C(O)C(F)(F)F.O=C(O)C(F)(F)F.[H][C@]12C[C@H](C(=O)NCC3CC3)N(C)[C@@]1([H])CN(Cc1ccsc1)C2` | -24.73% |
| `Cc1cccc(CN2CCN(C(=O)c3cc(Cl)c[nH]c3=O)CC2)c1` | -2.666% |
| `CCN(Cc1cc(Cl)ccc1OC)Cc1nccn1C` | 1.907% |
| `[H][C@]12CC[C@]([H])(CN(Cc3cscn3)C1)N(C(=O)CNC(N)=O)C2` | -19.07% |
| `O=C(c1cc(=O)c(OCc2ccccc2)co1)N1CCSCC1` | 5.591% |
| `O=C(O)C(F)(F)F.[H][C@@]12CN(Cc3ccco3)C[C@]1([H])C(=O)N(c1cncnc1)C2` | -8.192% |
| `CCOc1ccccc1NC(=O)CN(C)Cc1ccccc1Cl` | 3.435% |
| `COc1nn(C)c2c1CCCN(C(=O)c1cccc3cccnc13)C2.O=C(O)C(F)(F)F` | -1.629% |
| `COCCOc1ccc(-c2noc([C@@H]3CCCN3C3CCC3)n2)cn1` | -17.25% |
| `NC(=O)C1CN(Cc2c(O)ccc3oc4c(c23)CCCC4)CCO1` (centres unmarked) | 21.08% |
| `COCCC(=O)N1CCCC(CCC(=O)NCc2ccccc2F)C1` (centres unmarked) | -2.129% |
| `Cc1cc(CN(C)C(=O)C2CC(=O)N(Cc3cccnc3)C2)on1` (centres unmarked) | 8.897% |
| `CCC(Nc1ccc(CCN2CCCCC2)cc1)C(N)=O` (centres unmarked) | -40.57% |
| `CC(C)(C)OCCN(Cc1cccc(O)c1)C1CCC(O)CC1` (centres unmarked) | -8.247% |
| `COCCn1ccc(NC(=O)Nc2ccccc2)n1` | 5.984% |
| `[H][C@]12CCN(Cc3cccs3)[C@@]1([H])C[C@H](C(=O)N1CCOCC1)O2` | -0.5585% |
| `CCc1c(C(=O)N2CCOC(C)(C)C2)cnn1-c1ccccn1` | -32.88% |
| `O=C(CO)N1CCCn2nnc(Cn3cccn3)c2C1` | -34.55% |
| `COc1cc(C2(C(=O)N3CCN(CC(C)O)CC3)CC2)ccc1C` (centres unmarked) | -3.727% |
| `CS(=O)(=O)N1CCCC(Cc2ccnc(Nc3ccccn3)c2)C1` (centres unmarked) | 0.2582% |
| `O=C(O)C(F)(F)F.[H][C@@]12C[C@H](C(=O)NCc3cccnc3)[C@@]([H])(CN(C(=O)NC)C1)O2` | -24.91% |
| `COc1cccc(-c2nc(C)c(C(=O)N[C@@H](CC(C)C)C(=O)O)s2)c1` | -13.27% |

Once more, the final 6:

{"smiles": "CCc1c(C(=O)N2CCOC(C)(C)C2)cnn1-c1ccccn1", "percent effect": -32.88}
{"smiles": "O=C(CO)N1CCCn2nnc(Cn3cccn3)c2C1", "percent effect": -34.55}
{"smiles": "COc1cc(C2(C(=O)N3CCN(CC(C)O)CC3)CC2)ccc1C", "stereo": "centres unmarked", "percent effect": -3.727}
{"smiles": "CS(=O)(=O)N1CCCC(Cc2ccnc(Nc3ccccn3)c2)C1", "stereo": "centres unmarked", "percent effect": 0.2582}
{"smiles": "O=C(O)C(F)(F)F.[H][C@@]12C[C@H](C(=O)NCc3cccnc3)[C@@]([H])(CN(C(=O)NC)C1)O2", "percent effect": -24.91}
{"smiles": "COc1cccc(-c2nc(C)c(C(=O)N[C@@H](CC(C)C)C(=O)O)s2)c1", "percent effect": -13.27}

The values are deposited in ChEMBL (CHEMBL3988442, “University of Dundee, Small-Polar-MMV Screening Library” (2021)).